# From the supplement of paper PMC11006884
# Protein sequences, listed by entry. Tags and fused reporters are not part of them. Lines headed by an entry give the natural chain unless they say otherwise; changes in a name come on top.
# UniProt P46013: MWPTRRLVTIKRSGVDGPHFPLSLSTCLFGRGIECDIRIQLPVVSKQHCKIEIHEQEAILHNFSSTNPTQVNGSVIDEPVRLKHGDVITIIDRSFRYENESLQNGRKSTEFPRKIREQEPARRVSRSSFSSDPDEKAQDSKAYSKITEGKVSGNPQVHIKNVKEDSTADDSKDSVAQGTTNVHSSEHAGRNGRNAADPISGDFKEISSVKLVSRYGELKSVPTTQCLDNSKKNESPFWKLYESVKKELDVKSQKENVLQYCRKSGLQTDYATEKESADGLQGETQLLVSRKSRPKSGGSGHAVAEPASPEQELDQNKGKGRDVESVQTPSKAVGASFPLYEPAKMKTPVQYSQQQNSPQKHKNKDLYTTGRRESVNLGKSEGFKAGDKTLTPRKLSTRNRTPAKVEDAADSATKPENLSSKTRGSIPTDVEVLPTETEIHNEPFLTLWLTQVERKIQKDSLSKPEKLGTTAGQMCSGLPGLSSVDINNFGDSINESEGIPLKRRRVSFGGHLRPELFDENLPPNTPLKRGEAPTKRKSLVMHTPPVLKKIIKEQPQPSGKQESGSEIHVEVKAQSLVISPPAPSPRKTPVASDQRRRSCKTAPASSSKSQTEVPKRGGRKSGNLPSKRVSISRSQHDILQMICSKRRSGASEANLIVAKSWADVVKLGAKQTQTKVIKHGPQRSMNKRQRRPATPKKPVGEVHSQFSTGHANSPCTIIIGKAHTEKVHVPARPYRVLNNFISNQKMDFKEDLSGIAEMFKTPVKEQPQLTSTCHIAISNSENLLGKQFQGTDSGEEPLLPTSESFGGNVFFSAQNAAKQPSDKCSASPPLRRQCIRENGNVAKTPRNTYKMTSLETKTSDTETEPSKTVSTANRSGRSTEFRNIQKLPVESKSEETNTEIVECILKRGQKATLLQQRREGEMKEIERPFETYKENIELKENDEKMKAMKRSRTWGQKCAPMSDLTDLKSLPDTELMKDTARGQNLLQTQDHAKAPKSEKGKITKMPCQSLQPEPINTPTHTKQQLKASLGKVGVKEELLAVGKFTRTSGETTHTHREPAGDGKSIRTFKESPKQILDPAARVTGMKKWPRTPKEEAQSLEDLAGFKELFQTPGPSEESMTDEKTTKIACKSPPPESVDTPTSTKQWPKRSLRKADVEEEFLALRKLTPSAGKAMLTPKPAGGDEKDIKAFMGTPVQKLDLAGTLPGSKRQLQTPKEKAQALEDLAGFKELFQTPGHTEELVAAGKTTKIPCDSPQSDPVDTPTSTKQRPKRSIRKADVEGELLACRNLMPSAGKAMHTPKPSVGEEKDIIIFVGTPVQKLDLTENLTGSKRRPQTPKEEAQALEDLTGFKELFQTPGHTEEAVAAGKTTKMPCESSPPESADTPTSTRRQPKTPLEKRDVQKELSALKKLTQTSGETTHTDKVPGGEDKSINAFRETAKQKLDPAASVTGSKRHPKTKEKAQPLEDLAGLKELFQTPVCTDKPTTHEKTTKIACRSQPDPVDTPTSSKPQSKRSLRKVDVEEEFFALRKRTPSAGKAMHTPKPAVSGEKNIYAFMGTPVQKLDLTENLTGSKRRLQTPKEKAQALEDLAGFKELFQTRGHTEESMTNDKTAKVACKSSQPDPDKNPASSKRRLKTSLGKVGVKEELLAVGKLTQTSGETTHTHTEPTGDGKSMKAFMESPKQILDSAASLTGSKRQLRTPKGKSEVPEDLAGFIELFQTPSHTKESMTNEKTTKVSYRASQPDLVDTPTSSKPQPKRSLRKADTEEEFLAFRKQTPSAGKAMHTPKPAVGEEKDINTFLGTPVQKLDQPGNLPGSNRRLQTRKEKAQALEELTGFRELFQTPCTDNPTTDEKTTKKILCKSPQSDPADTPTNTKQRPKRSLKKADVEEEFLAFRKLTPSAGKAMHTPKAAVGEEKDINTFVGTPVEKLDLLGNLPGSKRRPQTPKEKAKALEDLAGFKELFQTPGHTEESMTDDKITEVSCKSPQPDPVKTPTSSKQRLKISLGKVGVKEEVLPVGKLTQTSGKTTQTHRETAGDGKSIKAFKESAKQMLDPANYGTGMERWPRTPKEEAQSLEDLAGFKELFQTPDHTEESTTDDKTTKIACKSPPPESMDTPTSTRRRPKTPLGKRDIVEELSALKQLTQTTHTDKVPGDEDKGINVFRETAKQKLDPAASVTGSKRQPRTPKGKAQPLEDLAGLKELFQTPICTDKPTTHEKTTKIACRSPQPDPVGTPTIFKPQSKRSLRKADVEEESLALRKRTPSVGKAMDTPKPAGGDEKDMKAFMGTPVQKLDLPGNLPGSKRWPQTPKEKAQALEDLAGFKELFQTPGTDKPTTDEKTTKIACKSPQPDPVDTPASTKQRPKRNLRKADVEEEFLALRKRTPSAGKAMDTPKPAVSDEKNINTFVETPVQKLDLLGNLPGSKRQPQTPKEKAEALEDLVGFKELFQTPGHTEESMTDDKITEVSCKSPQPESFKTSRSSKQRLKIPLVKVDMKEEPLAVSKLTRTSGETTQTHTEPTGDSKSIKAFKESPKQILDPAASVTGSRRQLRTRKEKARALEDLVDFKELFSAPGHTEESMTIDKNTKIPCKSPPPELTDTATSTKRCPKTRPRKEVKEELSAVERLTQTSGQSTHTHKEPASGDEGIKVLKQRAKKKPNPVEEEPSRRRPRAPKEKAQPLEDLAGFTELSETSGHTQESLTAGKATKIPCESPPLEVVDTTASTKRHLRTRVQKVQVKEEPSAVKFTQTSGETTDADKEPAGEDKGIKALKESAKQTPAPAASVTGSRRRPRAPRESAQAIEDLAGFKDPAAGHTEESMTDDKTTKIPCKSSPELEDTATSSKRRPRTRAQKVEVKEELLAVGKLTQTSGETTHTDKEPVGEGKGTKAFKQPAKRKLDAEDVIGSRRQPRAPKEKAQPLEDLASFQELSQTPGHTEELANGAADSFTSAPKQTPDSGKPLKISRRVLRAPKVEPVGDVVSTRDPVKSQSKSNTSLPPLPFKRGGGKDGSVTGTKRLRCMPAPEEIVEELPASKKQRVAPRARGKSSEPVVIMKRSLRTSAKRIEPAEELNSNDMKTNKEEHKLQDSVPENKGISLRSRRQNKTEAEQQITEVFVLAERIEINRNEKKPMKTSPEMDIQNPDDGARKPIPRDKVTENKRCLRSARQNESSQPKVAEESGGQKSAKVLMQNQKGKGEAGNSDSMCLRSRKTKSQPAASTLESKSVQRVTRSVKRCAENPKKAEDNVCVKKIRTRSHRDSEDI
# UniProt P49792, whole entry, looked up: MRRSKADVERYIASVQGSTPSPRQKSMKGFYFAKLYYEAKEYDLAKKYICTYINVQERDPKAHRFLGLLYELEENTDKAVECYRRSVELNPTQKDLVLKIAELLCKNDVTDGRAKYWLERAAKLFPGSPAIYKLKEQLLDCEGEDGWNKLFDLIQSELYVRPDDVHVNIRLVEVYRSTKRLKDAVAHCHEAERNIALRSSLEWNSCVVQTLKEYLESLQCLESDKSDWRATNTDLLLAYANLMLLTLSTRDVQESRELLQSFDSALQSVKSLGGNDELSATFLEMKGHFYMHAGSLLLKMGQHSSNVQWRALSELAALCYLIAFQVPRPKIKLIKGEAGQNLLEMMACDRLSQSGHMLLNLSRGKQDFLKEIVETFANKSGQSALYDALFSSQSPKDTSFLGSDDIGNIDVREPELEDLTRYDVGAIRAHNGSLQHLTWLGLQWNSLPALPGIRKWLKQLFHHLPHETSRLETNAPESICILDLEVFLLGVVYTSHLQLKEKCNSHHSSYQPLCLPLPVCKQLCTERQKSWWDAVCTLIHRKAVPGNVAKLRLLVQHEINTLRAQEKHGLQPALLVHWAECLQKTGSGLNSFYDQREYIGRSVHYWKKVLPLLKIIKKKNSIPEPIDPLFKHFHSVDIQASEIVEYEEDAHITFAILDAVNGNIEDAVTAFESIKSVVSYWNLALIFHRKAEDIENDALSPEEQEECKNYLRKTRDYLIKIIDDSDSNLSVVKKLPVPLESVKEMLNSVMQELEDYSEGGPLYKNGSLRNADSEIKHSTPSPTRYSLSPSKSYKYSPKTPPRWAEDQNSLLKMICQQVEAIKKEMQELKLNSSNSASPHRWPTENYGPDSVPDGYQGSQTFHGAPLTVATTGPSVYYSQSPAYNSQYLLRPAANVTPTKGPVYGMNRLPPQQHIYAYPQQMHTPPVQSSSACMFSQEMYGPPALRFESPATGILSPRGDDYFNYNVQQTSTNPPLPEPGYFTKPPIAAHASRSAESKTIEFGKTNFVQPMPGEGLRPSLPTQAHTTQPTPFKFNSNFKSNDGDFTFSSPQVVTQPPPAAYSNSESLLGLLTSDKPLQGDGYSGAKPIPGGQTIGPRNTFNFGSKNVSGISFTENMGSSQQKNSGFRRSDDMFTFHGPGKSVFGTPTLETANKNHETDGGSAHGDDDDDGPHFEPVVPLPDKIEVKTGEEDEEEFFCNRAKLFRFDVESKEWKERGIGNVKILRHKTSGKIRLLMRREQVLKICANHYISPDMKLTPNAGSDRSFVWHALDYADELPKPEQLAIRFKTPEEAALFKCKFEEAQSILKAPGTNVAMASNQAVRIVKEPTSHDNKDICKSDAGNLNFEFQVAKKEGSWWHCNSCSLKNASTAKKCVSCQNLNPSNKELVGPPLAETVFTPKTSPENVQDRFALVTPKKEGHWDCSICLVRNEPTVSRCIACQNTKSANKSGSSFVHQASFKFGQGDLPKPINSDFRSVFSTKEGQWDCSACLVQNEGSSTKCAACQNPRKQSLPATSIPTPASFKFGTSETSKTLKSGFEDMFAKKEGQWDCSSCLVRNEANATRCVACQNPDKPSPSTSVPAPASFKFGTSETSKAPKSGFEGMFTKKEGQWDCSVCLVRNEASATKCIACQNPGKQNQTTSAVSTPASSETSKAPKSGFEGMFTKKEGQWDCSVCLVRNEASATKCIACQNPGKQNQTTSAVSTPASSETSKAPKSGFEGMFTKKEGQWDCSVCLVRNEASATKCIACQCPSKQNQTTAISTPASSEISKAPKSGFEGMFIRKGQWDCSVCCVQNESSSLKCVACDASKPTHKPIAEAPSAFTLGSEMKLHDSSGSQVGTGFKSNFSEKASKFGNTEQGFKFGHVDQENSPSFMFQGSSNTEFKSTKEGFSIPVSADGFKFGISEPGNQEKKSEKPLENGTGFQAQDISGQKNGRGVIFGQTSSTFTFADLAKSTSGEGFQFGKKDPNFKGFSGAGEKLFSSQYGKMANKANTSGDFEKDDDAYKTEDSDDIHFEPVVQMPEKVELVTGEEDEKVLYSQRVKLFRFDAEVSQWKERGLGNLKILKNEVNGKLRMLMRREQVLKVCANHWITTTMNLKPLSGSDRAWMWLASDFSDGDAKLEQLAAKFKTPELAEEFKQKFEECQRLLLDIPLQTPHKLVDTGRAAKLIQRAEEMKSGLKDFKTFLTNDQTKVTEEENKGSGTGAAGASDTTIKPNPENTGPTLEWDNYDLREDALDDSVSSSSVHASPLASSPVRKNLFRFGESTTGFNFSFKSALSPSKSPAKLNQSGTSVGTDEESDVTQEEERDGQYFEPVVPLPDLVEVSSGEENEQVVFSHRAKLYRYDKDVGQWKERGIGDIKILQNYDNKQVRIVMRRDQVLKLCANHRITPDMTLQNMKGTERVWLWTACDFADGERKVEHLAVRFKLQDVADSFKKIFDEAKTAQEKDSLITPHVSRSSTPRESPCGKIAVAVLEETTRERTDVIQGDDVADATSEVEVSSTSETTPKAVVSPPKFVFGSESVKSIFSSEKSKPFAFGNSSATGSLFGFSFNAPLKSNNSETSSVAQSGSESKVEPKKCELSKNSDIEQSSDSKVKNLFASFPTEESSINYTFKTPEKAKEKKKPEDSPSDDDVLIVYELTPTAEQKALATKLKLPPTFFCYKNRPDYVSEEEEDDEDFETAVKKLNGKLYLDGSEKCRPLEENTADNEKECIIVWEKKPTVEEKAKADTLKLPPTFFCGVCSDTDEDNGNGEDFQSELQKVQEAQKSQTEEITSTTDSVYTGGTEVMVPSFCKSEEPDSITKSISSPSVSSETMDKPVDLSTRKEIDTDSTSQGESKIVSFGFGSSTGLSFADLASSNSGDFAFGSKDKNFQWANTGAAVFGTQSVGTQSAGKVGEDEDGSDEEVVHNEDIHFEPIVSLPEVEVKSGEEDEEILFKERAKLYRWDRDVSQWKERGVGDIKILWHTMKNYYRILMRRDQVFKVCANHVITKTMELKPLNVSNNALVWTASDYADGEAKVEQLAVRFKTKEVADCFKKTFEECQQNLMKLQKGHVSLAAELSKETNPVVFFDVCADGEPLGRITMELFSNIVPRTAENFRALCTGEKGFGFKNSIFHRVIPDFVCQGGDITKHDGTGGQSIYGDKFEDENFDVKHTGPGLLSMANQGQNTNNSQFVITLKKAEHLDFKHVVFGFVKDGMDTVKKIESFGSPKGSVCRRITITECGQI
# The list shows a part of the results, in another mix than the full data.
# Compound: COC(=O)C#Cc1ccccc1 [methyl 3-phenylpropiolate]
# Assay: log2 ratio of iodoacetamide-alkyne labeling of the cysteine site, DMSO over compound (competition); higher = stronger covalent engagement of the cysteine by the compound, active = 1 or more
# Settings: 500 µM; treatment time 1 h; system: HEK293T cell lysate
# Summary of the method: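 Three replicates, each with duplicate channels, were prepared from HEK293T lysate (2 mg/mL) treated with vehicle or electrophile at 500 µM for 1 h at ambient temperature. Iodoacetamide alkyne was then applied for 1 h, and samples were clicked to sCIP-TMT reagents, pooled, trypsin-digested overnight at 37 °C, enriched on streptavidin, acid-eluted and analysed on Orbitrap Eclipse LC-MS/MS with FAIMS, with FragPipe quantification. The log2 competition ratio per cysteine is the mean control-channel divided by the mean compound-channel reporter intensity. Cysteines quantified in only one replicate were left out.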
row,Target,log2 ratio of iodoacetamide-alkyne labeling
1,RANGAP1 C573 (UniProt P46060),inactive: -0.012
2,FASN C1459 (UniProt P49327),inactive: 0.294
3,CAMLG C123 (UniProt P49069),inactive: 0.308
4,PDLIM4 C44 (UniProt P50479),inactive: -0.0459
5,PCYT1A C73 (UniProt P49585),inactive: 0.921
6,UniProt P49591_C431,inactive: -0.00377
7,CCT3 C40 (UniProt P49368),inactive: 0.13
8,CAPZB C36 (UniProt P47756),inactive: 0.0452
9,MKI67 C1843 (UniProt P46013),inactive: 0.392
10,MAP1B C73 (UniProt P46821),inactive: 0.173
11,UniProt P46734_C305,inactive: -0.185
12,MKI67 C643 (UniProt P46013),inactive: 0.312
13,RANBP2 C581 (UniProt P49792),inactive: 0.41
14,UniProt P49753_C401,inactive: 0.0763
15,VDAC2 C210 (UniProt P45880),active: 1.39
16,RANBP2 C3071 (UniProt P49792),inactive: 0.0882
17,LRBA C1563 (UniProt P50851),inactive: 0.628
18,GALK1 C351 (UniProt P51570),inactive: 0.243
19,CBX5 C160 (UniProt P45973),inactive: 0.106

row,Target,log2 ratio of iodoacetamide-alkyne labeling
1,FXR2 C87 (UniProt P51116),inactive: 0.101
2,UniProt P49841_C199,inactive: 0.0422
3,ALDH7A1 C478 (UniProt P49419),inactive: 0.442
4,RANBP1 C132 (UniProt P43487),inactive: -0.0301
5,TAF6 C431 (UniProt P49848),inactive: 0.218
6,UniProt P49840_C380,inactive: 0.137
7,FASN C2091 (UniProt P49327),inactive: -0.224
8,RANBP2 C348 (UniProt P49792),inactive: 0.0938
9,CCT4 C450 (UniProt P50991),inactive: 0.277
10,RPL28 C13 (UniProt P46779),inactive: 0.318
11,UTRN C2185 (UniProt P46939),inactive: 0.26
12,ERF C189 (UniProt P50548),inactive: 0.37
13,UniProt P49459_C152,inactive: 0.0318
14,QARS C657 (UniProt P47897),inactive: 0.375
15,RECQL C49 (UniProt P46063),inactive: 0.0739
16,PHKA1 C1082 (UniProt P46020),inactive: 0.236
17,MKI67 C715 (UniProt P46013),inactive: 0.667
18,VASP C64 (UniProt P50552),inactive: 0.0103

# Reformatted: results already given
row	Target	log2 ratio of iodoacetamide-alkyne labeling
17	MKI67 C715 (UniProt P46013)	inactive: 0.667
18	VASP C64 (UniProt P50552)	inactive: 0.0103
